Assay results taken from US20050158313A1.
Results are given in words; binding and its absence hold for the method and conditions named. Some entries that bind do so weakly or less than the wild type.

B1: RGC0145 (scFv)
scFv: EVQLVQSGAEVKKPGSSVKISCEVSGGIFKNYAISWVRQAPGQGLEWMGGSIPMYGTPSYAPKFQGRVTIIADESTSTAYMELSSLRSEDTAMYYCARETTEVDDAFNIWGRGTLVTVSSGGGGSGGGGSGGGGSAQSVLTQPPSVSAAPRQRVTISCSGSSSNIGNNVVNWYQHFPGKAPRLLIFPDSLLSDRFSGSKSGTSASLAISGLQSDDEAEYYCASWDDSLNGLVFGGGTKLTVLG
B2: RGD0122 (scFv)
scFv: EVQLLESGEGLVQPGGSLRLSCAASGFTFSSYAMSWVRQAPGKGLEWVSAISGSGGSTYYADSVKGRFTISRDNSKNTLYLQMNSLRAEDTAVYYCATDPYYDSSGYYPFSYWGKGTTVTVSSGGGGSGGGGSGGGGSAQSVLTQPPSVSVAPGQTATITCGGDFATKSVNWYQRKPGQAPVTVIYYSTERPPAIPERFSGSNTGSTATLTISRVEAGDEADYYCQVWDSFTDHRLFGGGTKLTVLG

Molecular target: Reg IV polypeptide (human) (UniProt Q9BYZ8)
Assay: phage display selection of scFvs on Reg IV

binding | Binder
binds | B1
binds | B2
